Measurements published in PubChem BioAssay AID540275 (National Center for Advancing Translational Sciences (NCATS), 2011).
Screen size: about 320,000 compounds; about 620 (0.19%) were called active. Inconclusive results, whose numbers are uncertain, are shown with a selection of clear calls. Rule as the data show it: active = activation above about 80%; inconclusive = between about 30% and that limit; inactive = weaker than that.

Amino acid sequences for entries named in this document (tags omitted).
UniProt Q8NER1, whole entry, looked up: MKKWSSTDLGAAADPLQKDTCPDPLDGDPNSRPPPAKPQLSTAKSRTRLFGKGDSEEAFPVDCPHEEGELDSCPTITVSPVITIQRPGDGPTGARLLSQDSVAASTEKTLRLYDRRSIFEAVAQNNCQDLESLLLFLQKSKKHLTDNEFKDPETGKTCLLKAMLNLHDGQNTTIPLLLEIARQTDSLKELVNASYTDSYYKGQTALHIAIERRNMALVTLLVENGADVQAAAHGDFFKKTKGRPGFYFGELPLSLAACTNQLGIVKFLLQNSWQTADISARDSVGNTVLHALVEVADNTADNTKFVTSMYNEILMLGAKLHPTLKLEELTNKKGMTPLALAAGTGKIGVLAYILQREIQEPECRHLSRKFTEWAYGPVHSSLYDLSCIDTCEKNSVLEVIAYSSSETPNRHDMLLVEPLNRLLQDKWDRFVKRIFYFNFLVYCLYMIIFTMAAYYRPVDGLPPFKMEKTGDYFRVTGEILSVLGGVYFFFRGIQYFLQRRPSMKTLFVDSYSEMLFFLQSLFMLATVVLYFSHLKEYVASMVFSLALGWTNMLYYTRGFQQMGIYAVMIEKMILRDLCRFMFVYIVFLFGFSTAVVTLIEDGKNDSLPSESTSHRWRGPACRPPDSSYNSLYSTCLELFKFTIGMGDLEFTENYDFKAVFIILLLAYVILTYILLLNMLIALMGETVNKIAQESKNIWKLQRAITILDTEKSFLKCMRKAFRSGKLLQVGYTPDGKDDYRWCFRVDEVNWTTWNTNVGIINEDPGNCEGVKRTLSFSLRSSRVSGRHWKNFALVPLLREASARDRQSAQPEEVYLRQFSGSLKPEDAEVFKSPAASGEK

Molecular target: Transient receptor potential cation channel subfamily V member 1 (Homo sapiens) (UniProt Q8NER1)
Experiment: HTS Assay for Compounds that Act as Agonists of the Vanilloid Receptor 1; also: 0% is about no effect
Details: TRPV1-expressing cells, Fluo-8 calcium influx, agonist mode; at 8.33 µM, hits give high values
In short: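 TRPV1-expressing cells were cultured overnight at 35.5C and loaded with Fluo-8 calcium dye for 40 to 90 min at room temperature. After a 10 s baseline, compound was added and calcium influx was read kinetically for 3 min (ex 480/em 520 nm).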

Row | Compound | activation
1 | Cc1ccc(-c2c(C(=O)N/N=C/c3ccsc3)nnn2-c2nonc2N)cc1 | inconclusive: 31.4%
2 | CCOC(=O)N1CCN(c2nc(-c3ccc(Cl)cc3)cs2)CC1 | inconclusive: 42%
3 | c1ccc(-c2ccc(-c3cn4c(n3)CCC4)cc2)cc1 | inconclusive: 31.6%
4 | Cc1ccc(-c2cc(C(F)F)nc(NCc3cccs3)n2)cc1 | inconclusive: 34.8%
5 | CC1CCc2nc(NC(=O)c3ccco3)sc2C1 (stereo not given) | inconclusive: 53.1%
6 | COc1ccc(OCC(=O)NCc2ccc(Cl)cc2)cc1 | inconclusive: 42.7%
7 | COCC(C)NC(=O)CSc1nc2ccccc2c(=O)n1CCc1ccc(S(N)(=O)=O)cc1 (stereo not given) | inconclusive: 36%
8 | Cc1ccccc1NC(=O)CN1CCC(NC(=O)Nc2ccccc2)CC1 | inconclusive: 32.1%
9 | COc1cc(C)ccc1OCCCCOc1ccccc1C(C)=O | inactive: 3.62%
10 | COc1ccc(Cl)cc1NC(=O)CNC(c1ccccc1)c1ccccc1 | inconclusive: 38.4%
11 | COc1cccc(CN(C)CC(=O)NCc2ccc(F)cc2)c1OC | inconclusive: 54.4%
12 | CCC(C)(C)C(=O)O[C@H]1C[C@@H](C)C=C2C=C[C@H](C)[C@H](CC[C@@H]3C[C@@H](O)CC(=O)O3)[C@H]21 | inconclusive: 42.7%
13 | CC(Cc1cccs1)NC(=O)Nc1ccc(F)cc1 (stereo not given) | inconclusive: 75.5%
14 | CCCCn1c2ccccc2c2cc(CC(N)=O)ccc21 | inconclusive: 36.2%
15 | Cc1ccc(CSCCNC(=O)c2ccc(Cl)c(S(=O)(=O)N3CCOCC3)c2)cc1 | inconclusive: 71.1%
16 | O=C(c1cccs1)N1CCN(c2ccccc2)CC1 | inconclusive: 31.3%
17 | COc1ccc(OCC(=O)Nc2ccccc2O)cc1 | inconclusive: 50.9%
18 | Cc1cc(C)n2cc(CSCC(=O)O)nc2n1 | inactive: -0.29%
19 | CCOc1ccc(N(CC(=O)N2CCCC2)S(=O)(=O)c2ccc(Cl)cc2)cc1 | inconclusive: 34.9%
20 | COc1cccc(CNC(=O)COC(=O)c2nc(Cl)c(Cl)c(Cl)c2Cl)c1 | inconclusive: 62%
21 | Cc1nc2c3ccccc3nc(NNC(=O)CCC(=O)N3CCCC(C)C3)n2n1 (stereo not given) | inactive: -1.96%
22 | O=C(NCC1CC1)c1onc(CSc2ccncc2)c1C(=O)NCC1CC1 | inconclusive: 38.4%
23 | O=C(Nc1ccncc1)c1cc(-c2cccc(Br)c2)nc2ccccc12 | inconclusive: 52.9%
24 | O=C(Nc1ccc2oc(-c3ccccc3)nc2c1)C1CCCO1 (stereo not given) | inactive: 18.7%
25 | N#Cc1ccc(-c2cccnc2)nc1SCc1ccc(Cl)c(Cl)c1 | inconclusive: 52.4%

2 entries from above, as comma-separated lines:
Row,Compound,activation
16,O=C(c1cccs1)N1CCN(c2ccccc2)CC1,inconclusive: 31.3%
22,O=C(NCC1CC1)c1onc(CSc2ccncc2)c1C(=O)NCC1CC1,inconclusive: 38.4%
